{"source": "PubChem BioAssay AID652243 | Drosophila RNAi Screening Center – 2013", "screen": "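Fly genes required for human androgen receptor driven transcription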 (primary screen)", "system": "Drosophila S2R+ cells", "knock-down reagent": "long dsRNA against Drosophila genes", "timing": "72 h (48 h, then 24 h hormone)", "treatment": "synthetic androgen R1881 at 10 nM for 24 h", "read-out": "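Firefly light from an androgen-responsive reporter and Renilla control light per well, raw and unnormalised, for each of two replicates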", "scale": "firefly reporter light: higher = more light from androgen-responsive reporter; Renilla control light: higher = more constitutive control signal (cell number, transfection)", "active means": "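Hit when the log firefly-to-Renilla ratio dropped or increased by a fixed fold versus the mean of GFP or LacZ controls across duplicate plates; lowering cut given as 1.5 and as 3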", "meaning of the calls": "active = hit: reporter lowered or raised; inactive = no hit", "note": "The deposit covers about 24,000 reagents; this is an unselected part of those that have a named target and a result. Of all reagents, 246 (1%) were called active. 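Plates not normalised; calls are printed but the firefly/Renilla ratio behind them is not deposited; fold cut for lowering reported inconsistently.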 The raw values are shown without normalisation. Unmarked entries are inactive. Names joined by + are all predicted targets of the reagent. Reagent sequences are not shown. Not stated in the record: the amount of reagent."}
{"Target gene": "Srlp", "amplicon": "DRSC15890", "firefly reporter light, replicate 1": 1.31e5, "firefly reporter light, replicate 2": 1.73e5, "Renilla control light, replicate 1": 1.56e6, "Renilla control light, replicate 2": 2.02e6}
{"Target gene": "ranshi", "amplicon": "DRSC16564", "firefly reporter light, replicate 1": 1.14e5, "firefly reporter light, replicate 2": 1.30e5, "Renilla control light, replicate 1": 1.75e6, "Renilla control light, replicate 2": 1.94e6}
{"Target gene": "ranshi", "amplicon": "DRSC29605", "firefly reporter light, replicate 1": 3.84e5, "firefly reporter light, replicate 2": 5.59e5, "Renilla control light, replicate 1": 6.56e5, "Renilla control light, replicate 2": 6.56e5}
{"Target gene": "Rh4 + sina", "amplicon": "DRSC11396", "firefly reporter light, replicate 1": 36636, "firefly reporter light, replicate 2": 43480, "Renilla control light, replicate 1": 3.58e5, "Renilla control light, replicate 2": 3.28e5}

Next part; the last 2 above are carried over.
{"Target gene": "ranshi", "amplicon": "DRSC29605", "firefly reporter light, replicate 1": 3.84e5, "firefly reporter light, replicate 2": 5.59e5, "Renilla control light, replicate 1": 6.56e5, "Renilla control light, replicate 2": 6.56e5}
{"Target gene": "Rh4 + sina", "amplicon": "DRSC11396", "firefly reporter light, replicate 1": 36636, "firefly reporter light, replicate 2": 43480, "Renilla control light, replicate 1": 3.58e5, "Renilla control light, replicate 2": 3.28e5}
{"Target gene": "CG1463", "amplicon": "DRSC19603", "firefly reporter light, replicate 1": 70150, "firefly reporter light, replicate 2": 1.04e5, "Renilla control light, replicate 1": 5.81e5, "Renilla control light, replicate 2": 5.16e5}
{"Target gene": "CG33941", "amplicon": "DRSC37786", "firefly reporter light, replicate 1": 7.95e5, "firefly reporter light, replicate 2": 7.05e5, "Renilla control light, replicate 1": 1.76e6, "Renilla control light, replicate 2": 1.26e6}
{"Target gene": "CG33941", "amplicon": "DRSC39124", "firefly reporter light, replicate 1": 9.50e5, "firefly reporter light, replicate 2": 9.66e5, "Renilla control light, replicate 1": 1.80e6, "Renilla control light, replicate 2": 2.15e6}
{"Target gene": "CG33941", "amplicon": "DRSC39125", "firefly reporter light, replicate 1": 8.80e5, "firefly reporter light, replicate 2": 7.99e5, "Renilla control light, replicate 1": 1.68e6, "Renilla control light, replicate 2": 1.57e6}
{"Target gene": "Obp28a", "amplicon": "DRSC03394", "firefly reporter light, replicate 1": 1.43e5, "firefly reporter light, replicate 2": 1.80e5, "Renilla control light, replicate 1": 1.47e6, "Renilla control light, replicate 2": 1.69e6}
{"Target gene": "Obp28a", "amplicon": "DRSC25374", "firefly reporter light, replicate 1": 5.33e5, "firefly reporter light, replicate 2": 4.37e5, "Renilla control light, replicate 1": 4.55e5, "Renilla control light, replicate 2": 6.02e5}
{"Target gene": "CG11905", "amplicon": "DRSC09863", "firefly reporter light, replicate 1": 42157, "firefly reporter light, replicate 2": 24801, "Renilla control light, replicate 1": 5.93e5, "Renilla control light, replicate 2": 4.08e5}
{"Target gene": "CG11905", "amplicon": "DRSC24702", "firefly reporter light, replicate 1": 9.29e5, "firefly reporter light, replicate 2": 8.68e5, "Renilla control light, replicate 1": 8.08e5, "Renilla control light, replicate 2": 9.62e5}
